Assay results taken from the supplement of paper PMC4604168 (melanoma cell lines).
The list shows a part of the results. Repeats are few or missing, and single values can be far off.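 The apoptosis fraction was the count of cleaved-PARP antibody-stained nuclei relative to all DNA-stained nuclei, imaged in 1,536-well plates. Screening doses were set so most cells survived, and baseline and induced cleaved-PARP levels vary greatly across cell lines.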

What was measured:
Assay in all cases: cleaved PARP positive nuclei fraction relative to DMSO control; melanoma cells; higher = more apoptosis
Conditions in all cases: library dose: low library concentration; 72 h
501Mel = system: 501Mel
A101D = system: A101D
A2058 = system: A2058
A375 = system: A375
C32 = system: C32
CBRC008 = system: CBRC008 (line from a melanoma biopsy)
CBRC013 = system: CBRC013 (line from a melanoma biopsy)
CBRC014 = system: CBRC014 (line from a melanoma biopsy)
CBRC016 = system: CBRC016 (line from a melanoma biopsy)
CBRC017 = system: CBRC017 (line from a melanoma biopsy)

Compound | cleaved PARP positive nuclei fraction (501Mel) [%] | cleaved PARP positive nuclei fraction (A101D) [%] | cleaved PARP positive nuclei fraction (A2058) [%] | cleaved PARP positive nuclei fraction (A375) [%] | cleaved PARP positive nuclei fraction (C32) [%] | cleaved PARP positive nuclei fraction (CBRC008) [%] | cleaved PARP positive nuclei fraction (CBRC013) [%] | cleaved PARP positive nuclei fraction (CBRC014) [%] | cleaved PARP positive nuclei fraction (CBRC016) [%] | cleaved PARP positive nuclei fraction (CBRC017) [%]
Cn1cnc2c(F)c(Nc3ccc(Br)cc3Cl)c(C(=O)NOCCO)cc21 [selumetinib] + CC1(C)NC(=O)N(c2ccc([N+](=O)[O-])c(C(F)(F)F)c2)C1=O [nilutamide] (first compound 0.015 µM, partner dose 1 µM) | 521 | 27.1 | 52.6 | 105 | 82.5 | 124 | 96.4 | 149 | 140 | 135
CS(=O)(=O)c1ccc(C(=O)Nc2ccc(Cl)c(-c3ccccn3)c2)c(Cl)c1 [vismodegib] + CN(c1ncccc1CNc1nc(Nc2ccc3c(c2)CC(=O)N3)ncc1C(F)(F)F)S(C)(=O)=O [PF562271] (first compound 1 µM, partner dose 0.08 µM) | 64.8 | 388 | 150 | 159 | 189 | 24.4 | – | 91.6 | 31.1 | 102
COc1ccc(C2=N[C@@H](c3ccc(Cl)cc3)[C@@H](c3ccc(Cl)cc3)N2C(=O)N2CCNC(=O)C2)c(OC(C)C)c1 [Nutlin-3] + Nc1ncn([C@H]2C[C@H](O)[C@@H](CO)O2)c(=O)n1 [decitabine] (first compound 0.1 µM, partner dose 0.1 µM) | 91.3 | 50.2 | 251 | 48.7 | 85.1 | 78.1 | – | 98 | 124 | 172
CCCCCCCCc1ccc(CCC(N)(CO)CO)cc1 [fingolimod] + OCCn1cc(-c2cnc3nnn(Cc4ccc5ncccc5c4)c3n2)cn1 [PF04217903] (first compound 2 µM, partner dose 1 µM) | 56.7 | 79.5 | 53 | 473 | 84.5 | 158 | 90.4 | 97.1 | 72.7 | 99
CCCCCCCCc1ccc(CCC(N)(CO)CO)cc1 [fingolimod] + C=CCn1c(=O)c2cnc(Nc3ccc(N4CCN(C)CC4)cc3)nc2n1-c1cccc(C(C)(C)O)n1 [MK1775] (first compound 2 µM, partner dose 0.02 µM) | 175 | 67.9 | 90.6 | 649 | 174 | 111 | 49.6 | 107 | 137 | 101
COc1ccc(C2=N[C@@H](c3ccc(Cl)cc3)[C@@H](c3ccc(Cl)cc3)N2C(=O)N2CCNC(=O)C2)c(OC(C)C)c1 [Nutlin-3] + COc1cc(Nc2ncc(F)c(Nc3ccc4c(n3)NC(=O)C(C)(C)O4)n2)cc(OC)c1OC [Tamatinib] (first compound 0.1 µM, partner dose 0.4 µM) | 92.6 | 202 | 82.5 | 101 | 195 | 146 | 112 | 92.8 | 33.5 | 95.5
CC(=O)O[C@@]12CO[C@@H]1C[C@H](O)[C@@]1(C)C(=O)[C@H](O)C3=C(C)[C@@H](OC(=O)[C@H](O)[C@@H](NC(=O)OC(C)(C)C)c4ccccc4)C[C@@](O)([C@@H](OC(=O)c4ccccc4)[C@H]21)C3(C)C [Docetaxel] + CO[C@H]1C[C@@H]2CC[C@@H](C)[C@@](O)(O2)C(=O)C(=O)N2CCCC[C@H]2C(=O)O[C@H]([C@H](C)C[C@@H]2CC[C@@H](OCCO)[C@H](OC)C2)CC(=O)[C@H](C)/C=C(\C)[C@@H](O)[C@@H](OC)C(=O)[C@H](C)C[C@H](C)/C=C/C=C/C=C/1C [everolimus] (first compound 0.0001 µM, partner dose 0.02 µM) | 3590 | 142 | 2670 | 4640 | 439 | 504 | – | 168 | 389 | 168
CC1(C)CCC(c2ccc(Cl)cc2)=C(CN2CCN(c3ccc(C(=O)NS(=O)(=O)c4ccc(N[C@H](CCN5CCOCC5)CSc5ccccc5)c(S(=O)(=O)C(F)(F)F)c4)cc3)CC2)C1 + CCCS(=O)(=O)Nc1ccc(F)c(C(=O)c2c[nH]c3ncc(Cl)cc23)c1F [PLX4720] (first compound 0.4 µM, partner dose 0.08 µM) | 50.4 | 250 | 101 | 1290 | 129 | 482 | – | 527 | 507 | 472
C[C@]1(O)C[C@@H](c2nc(-c3ccc4ccc(-c5ccccc5)nc4c3)c3c(N)nccn32)C1 + NCC(=O)Nc1ccc(-n2nc(C(F)(F)F)cc2-c2ccc3c(ccc4ccccc43)c2)cc1 [OSU03012] (first compound 0.4 µM, partner dose 1 µM) | 178 | 76.7 | 51.1 | 8980 | 95.2 | 167 | 184 | 115 | 31.5 | 83.3
CN(c1ncccc1CNc1nc(Nc2ccc3c(c2)CC(=O)N3)ncc1C(F)(F)F)S(C)(=O)=O + CN(NC(=O)CC(=O)NN(C)C(=S)c1ccccc1)C(=S)c1ccccc1 [STA4783] (first compound 0.08 µM, partner dose 0.006 µM) | 149 | 157 | 427 | 597 | 418 | 667 | 132 | 569 | 406 | 126
CC(=O)O[C@@]12CO[C@@H]1C[C@H](O)[C@@]1(C)C(=O)[C@H](O)C3=C(C)[C@@H](OC(=O)[C@H](O)[C@@H](NC(=O)OC(C)(C)C)c4ccccc4)C[C@@](O)([C@@H](OC(=O)c4ccccc4)[C@H]21)C3(C)C [Docetaxel] + NCC(=O)Nc1ccc(-n2nc(C(F)(F)F)cc2-c2ccc3c(ccc4ccccc43)c2)cc1 [OSU03012] (first compound 0.0001 µM, partner dose 1 µM) | 389 | 121 | 4920 | 6310 | 571 | 379 | 124 | 143 | 107 | 166
CCN(CC)CCNC(=O)c1c(C)[nH]c(/C=C2\C(=O)Nc3ccc(F)cc32)c1C [sunitinib] + Cc1nc(Nc2ncc(C(=O)Nc3c(C)cccc3Cl)s2)cc(N2CCN(CCO)CC2)n1 [dasatanib] (first compound 0.4 µM, partner dose 0.004 µM) | 297 | 73 | 120 | 118 | 115 | 25.9 | – | 162 | 52.4 | 102
CCN(CC)CCNC(=O)c1c(C)[nH]c(/C=C2\C(=O)Nc3ccc(F)cc32)c1C [sunitinib] + O=C(O)c1ccc(-c2c[nH]c3ncc(-c4ccccc4)cc23)cc1C1CCCC1 [GSK650394] (first compound 0.4 µM, partner dose 0.16 µM) | 194 | 125 | 145 | 184 | 105 | 208 | 241 | 96.8 | 174 | 134
C[C@@H](N)c1ccc(C(=O)Nc2ccnc3[nH]ccc23)cc1 + CO[C@H]1C[C@@H]2CC[C@@H](C)[C@@](O)(O2)C(=O)C(=O)N2CCCC[C@H]2C(=O)O[C@H]([C@H](C)C[C@@H]2CC[C@@H](OCCO)[C@H](OC)C2)CC(=O)[C@H](C)/C=C(\C)[C@@H](O)[C@@H](OC)C(=O)[C@H](C)C[C@H](C)/C=C/C=C/C=C/1C [everolimus] (first compound 0.4 µM, partner dose 0.02 µM) | 467 | 138 | 124 | 914 | 78.7 | 95.5 | – | 136 | 138 | 179
C[C@]1(O)C[C@@H](c2nc(-c3ccc4ccc(-c5ccccc5)nc4c3)c3c(N)nccn32)C1 + CCCCCCCCc1ccc(CCC(N)(CO)CO)cc1 [fingolimod] (first compound 0.4 µM, partner dose 2 µM) | 790 | 109 | 78 | 1120 | 84.3 | 79.4 | – | 106 | 94.1 | 114
CN(c1ncccc1CNc1nc(Nc2ccc3c(c2)CC(=O)N3)ncc1C(F)(F)F)S(C)(=O)=O + OCCn1cc(-c2cnc3nnn(Cc4ccc5ncccc5c4)c3n2)cn1 [PF04217903] (first compound 0.08 µM, partner dose 1 µM) | 145 | 91.6 | 78.1 | 180 | 338 | 165 | 138 | 98.8 | 114 | 95.3
CN(c1ncccc1CNc1nc(Nc2ccc3c(c2)CC(=O)N3)ncc1C(F)(F)F)S(C)(=O)=O + C[C@@H]1CCN(C(=O)CC#N)C[C@@H]1N(C)c1ncnc2[nH]ccc12 [CP690550] (first compound 0.08 µM, partner dose 1 µM) | 91.7 | 40.3 | 134 | 80.4 | 267 | 75.1 | 108 | 81.3 | 87.6 | 74.1

Single records, as listed above. Values in the order: cleaved PARP positive nuclei fraction (501Mel) [%]	cleaved PARP positive nuclei fraction (A101D) [%]	cleaved PARP positive nuclei fraction (A2058) [%]	cleaved PARP positive nuclei fraction (A375) [%]	cleaved PARP positive nuclei fraction (C32) [%]	cleaved PARP positive nuclei fraction (CBRC008) [%]	cleaved PARP positive nuclei fraction (CBRC013) [%]	cleaved PARP positive nuclei fraction (CBRC014) [%]	cleaved PARP positive nuclei fraction (CBRC016) [%]	cleaved PARP positive nuclei fraction (CBRC017) [%]
CC(=O)O[C@@]12CO[C@@H]1C[C@H](O)[C@@]1(C)C(=O)[C@H](O)C3=C(C)[C@@H](OC(=O)[C@H](O)[C@@H](NC(=O)OC(C)(C)C)c4ccccc4)C[C@@](O)([C@@H](OC(=O)c4ccccc4)[C@H]21)C3(C)C [Docetaxel] + CO[C@H]1C[C@@H]2CC[C@@H](C)[C@@](O)(O2)C(=O)C(=O)N2CCCC[C@H]2C(=O)O[C@H]([C@H](C)C[C@@H]2CC[C@@H](OCCO)[C@H](OC)C2)CC(=O)[C@H](C)/C=C(\C)[C@@H](O)[C@@H](OC)C(=O)[C@H](C)C[C@H](C)/C=C/C=C/C=C/1C [everolimus] (first compound 0.0001 µM, partner dose 0.02 µM) in the list: 3590	142	2670	4640	439	504	–	168	389	168
CN(c1ncccc1CNc1nc(Nc2ccc3c(c2)CC(=O)N3)ncc1C(F)(F)F)S(C)(=O)=O + CN(NC(=O)CC(=O)NN(C)C(=S)c1ccccc1)C(=S)c1ccccc1 [STA4783] (first compound 0.08 µM, partner dose 0.006 µM) in the list: 149	157	427	597	418	667	132	569	406	126
